{"source": "patent US8283445B2", "about": "“Extracellular-signal-regulated-kinase (ERK) heteropolyligand polypeptide” (Intrexon Corporation, priority 2006, dated 2012)", "molecules": {"B1": {"name": "SEQ ID NO:1: ERK heteropolyligand A-S1-B-S2-C-S3-D-S4-E-S5-F of SEQ ID NOS:91, 97, 28, 29, 30, 31, Xaa alanine, with spacers (protein)", "chain": "MPKKKPTPIQLNPAAKGRKPRDLELPAAAATGPLAPGPFGAGAYSPTAPTYSPTAPKKKGGGGAPRAPGGRRAGAGRRPRAPAKLSFFFPS", "modifications": "Synthetic polyligand"}}, "tested_on": "Cos7 cells", "assay": "Subcellular localization by immunostaining for c-Myc epitope tag (fluorescence microscopy)", "format": "cell-based", "data": [{"molecule": "B1", "values": [{"measurement": "Subcellular localization", "setting": "fused to ER localization signal and c-Myc tag, Cos7 cells, FIG. 13A", "result": "endoplasmic reticulum"}, {"measurement": "Subcellular localization", "setting": "fused to nuclear localization signal and c-Myc tag, FIG. 16", "result": "nucleus"}, {"measurement": "Subcellular localization", "setting": "fused to nuclear-exclusion localization signal and c-Myc tag, FIG. 17", "result": "cytoplasm"}]}]}
